Measured values published in PubChem BioAssay AID504834 (National Center for Advancing Translational Sciences (NCATS), 2011).
Screen size: about 320,000 compounds; about 22,000 (6.9%) were called active. The inconclusive results got no clear call from the source; some entries with a clear call stand among them for comparison. Calls follow the shape of the dose curve; as a rule, active = well fitted inhibition curve with a large enough effect; inconclusive = small, poorly fitted or top-dose-only effect, or another doubt; inactive = no such curve, though single readings can be large or run the other way. Where the call is inconclusive, the potency comes from a doubtful curve fit.

assay: Primary qHTS for delayed death inhibitors of the malarial parasite plastid, 96 hour incubation; details: P. falciparum luciferase reporter growth; series mostly up to 28.7 µM
Summary of the method: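 Luminescence readout: decreased luciferase signal marks inhibited growth of reporter-expressing P. falciparum in infected red cells (2% hematocrit, 0.05% parasitemia final), exposed to compound two generations (96 h, 37 C, 5% CO2).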
Potency is read from the fitted curve at half-maximal effect.

SMILES | Potency
O=C(CN1CCCCCC1)Nc1ccc(F)c(F)c1F | inconclusive: 3.7 µM [inhibitor, single point]
CC1CCN(c2nc3ccc(C(=O)O)cc3s2)CC1 | inactive
COCCCNC(=O)c1c(N)n(-c2ccc3c(c2)OCO3)c2nc3ccccc3nc12 | inactive
Cn1c(SCc2ccc(C#N)cc2)nnc1-c1ccncc1 | inactive
COc1cc(Cl)c(C)cc1NC(=O)CN(C)Cc1cccc(OC)c1OC | inactive
CC(C)(O)c1cc(=O)sc2nc3ccccc3n12 | inconclusive: 10.4 µM [inhibitor, single point]
C#Cc1ccc([C@H]2C=C(C(=O)N3CCOCC3)O[C@@H](OCc3ccc(CO)cc3)C2)cc1 | inconclusive: 11.7 µM [inhibitor, partial curve, poor fit]
O=C(CSc1n[nH]c(=O)n1Cc1ccco1)Nc1ccccc1Cl | active: 4.65 µM
O=C1NC2(CCCCCC2)C(=O)N1Cc1cccc(Cl)c1 | inactive
CCOc1ccc(CCNC(=O)c2ccc(CS(=O)Cc3ccc(Cl)cc3)o2)cc1OCC (centres undefined) | inconclusive: 13.1 µM [inhibitor, single point]
COc1ccc(CSc2nnc(Cc3sc(-c4ccccc4)nc3-c3ccccc3)o2)cc1 | active: 2.08 µM
O=C(CCc1ccccc1)Nc1nccs1 | inactive
CC(C)(C)C1CCC2(CC1)NC(CO)(CO)CO2 (centres undefined) | inconclusive: 0.586 µM [inhibitor, full curve, poor fit]
CC(CN1CCCCC1)OC(=O)c1ccccc1F (centres undefined) | inconclusive: 9.28 µM [inhibitor, partial curve, poor fit]
COC(=O)C1C2C=CC3(CN(C(C)C)C(=O)C13)O2 (centres undefined) | inconclusive: 9.28 µM [inhibitor, single point]
O=C(c1ccco1)N1CCN(c2ccc(N3CCCCC3)nn2)CC1 | inconclusive: 18.5 µM [inhibitor, single point]
CC(=O)c1cc2c(cc1NC(=O)CCn1cccc1)OCO2 | inconclusive: 0.0029 µM [inhibitor, full curve, poor fit]
CC#CCN1c2ccccc2[C@]23C[C@@H](C(=O)OC)N(C(=O)C4CCC4)C2=NC(C(=O)OC)=C(C(=O)OC)[C@H]13 | inconclusive: 18.5 µM [inhibitor, single point]
CCN(CC)C(=O)CCS(=O)(=O)c1cccc2nonc12 | inconclusive: 18.5 µM [inhibitor, single point]
Cc1ccsc1C(=O)NNC(=O)Nc1ccc(Cl)c(Cl)c1 | inactive
CN(CC/C=C1/c2ccccc2CSc2ccccc21)CCCO | active: 13.1 µM
Brc1c(OCCOCCn2cncn2)ccc2ccccc12 | inconclusive: 4.15 µM [inhibitor, single point]

Single values from the results shown.
Potency with `C#Cc1ccc([C@H]2C=C(C(=O)N3CCOCC3)O[C@@H](OCc3ccc(CO)cc3)C2)cc1` is entered as inconclusive: 11.7 µM [inhibitor, partial curve, poor fit]
Potency with `COc1cc(Cl)c(C)cc1NC(=O)CN(C)Cc1cccc(OC)c1OC` is entered as inactive

(list continues)

SMILES | Potency
O=C(NCc1nnc2c3ccccc3c(-c3ccccc3)nn12)c1ccc(Cl)cc1 | inconclusive: 6.57 µM [inhibitor, partial curve, poor fit]
O=C(NC1CCCCC1)C1c2ccccc2C(=O)N1Cc1ccc2c(c1)OCO2 (centres undefined) | inactive
Cc1c(C(=O)NCc2ccccc2)oc2ccc(S(=O)(=O)N3CCCC3)cc12 | inconclusive: 23.3 µM [inhibitor, partial curve, poor fit]
O=C(COC(=O)c1ccccc1NC(=O)c1ccccc1)c1ccc([N+](=O)[O-])cc1 | inconclusive: 10.4 µM [inhibitor, single point]
COc1ccc(-c2nc(CS(=O)CC(=O)NC3CCCc4ccccc43)c(C)o2)cc1OC (centres undefined) | inconclusive: 13.1 µM [inhibitor, single point]
COc1ccc([C@H]2CC(=O)C=C(c3cc(Cl)cc(Cl)c3)C2)cc1 | inconclusive: 18.5 µM [inhibitor, single point]
Cc1ccc(N2C(=O)Nc3ccccc3C2(O)C(=O)N2CCN(c3ccccn3)CC2)cc1C (centres undefined) | inconclusive: 18.5 µM [inhibitor, single point]
CCOc1ncccc1C(=O)N(C)CC(=O)Nc1ccc(C)cc1 | inactive
COC(=O)[C@H]1C[C@@H]1[C@H](NP(=O)(c1ccccc1)c1ccccc1)c1ccccc1 | inconclusive: 13.1 µM [inhibitor, single point]
Cc1occc1C(=O)N(C)Cc1nc(-c2ccccc2)no1 | inactive
COc1ccccc1/C=C/C(=O)OCC(=O)c1c[nH]c2ccccc12 | inconclusive: 11.7 µM [inhibitor, single point]
Cc1ccc(Nc2nc(N)c([N+](=O)[O-])c(N3CCOCC3)n2)cc1C | inconclusive: 13.1 µM [inhibitor, partial curve, poor fit]
CC(=O)c1ccc(OCC(=O)N(C2CCCCC2)C2CCS(=O)(=O)C2)cc1 (centres undefined) | inconclusive: 16.5 µM [inhibitor, single point]
CCCOc1cccc(CN2CCCCC2c2cccnc2)c1 (centres undefined) | inactive
COc1ccc(CN2C(=O)[C@@H]3C(c4ccccc4Cl)=NO[C@@H]3C2=O)cc1 | inconclusive: 18.5 µM [inhibitor, single point]
CC(C)(C)C(=O)NC(NC(=S)Nc1sc2c(c1C#N)CCCC2)C(Cl)(Cl)Cl (centres undefined) | inconclusive: 18.5 µM [inhibitor, single point]
CC(=O)C1CCC2C3CCC4=CC(=O)CC[C@]4(C)[C@@]3(F)C(O)C[C@]12C (some centres undefined) | inconclusive: 9.28 µM [inhibitor, single point]
O=C(NCCS(=O)(=O)N1CCN(c2ccccc2F)CC1)c1ccc(Br)cc1 | inactive
COc1ccccc1[C@@H]1C(c2cccc(C)c2)=NN(c2ccccc2)[C@H]1C(=O)N1CCOC1=O | active: 10.4 µM
CCCCn1nc(C(=O)NCC2COc3ccccc3O2)c2ccccc2c1=O (centres undefined) | inconclusive: 18.5 µM [inhibitor, single point]
CC(C)C1OC2(C)OC(=N)C1(C#N)C(C#N)(C#N)C2c1ccccc1 (centres undefined) | inconclusive: 9.28 µM [inhibitor, single point]
C=Cn1cc[n+](CC(=O)c2ccc(OC)cc2)c1 | inconclusive: 9.28 µM [inhibitor, partial curve, poor fit]
